Test results taken from article PMC5557939.
These are yes or no findings as the source states them, for the method shown. Binding seen in cells or lysates may run through a third protein. Some results given as binding are weak or reduced against the parent protein; the word gives no strength. For part of these data: Sequences can lack the tags named with a protein.

The chains behind the UniProt entries cited, without tags or fusion partners.
UniProt Q62318: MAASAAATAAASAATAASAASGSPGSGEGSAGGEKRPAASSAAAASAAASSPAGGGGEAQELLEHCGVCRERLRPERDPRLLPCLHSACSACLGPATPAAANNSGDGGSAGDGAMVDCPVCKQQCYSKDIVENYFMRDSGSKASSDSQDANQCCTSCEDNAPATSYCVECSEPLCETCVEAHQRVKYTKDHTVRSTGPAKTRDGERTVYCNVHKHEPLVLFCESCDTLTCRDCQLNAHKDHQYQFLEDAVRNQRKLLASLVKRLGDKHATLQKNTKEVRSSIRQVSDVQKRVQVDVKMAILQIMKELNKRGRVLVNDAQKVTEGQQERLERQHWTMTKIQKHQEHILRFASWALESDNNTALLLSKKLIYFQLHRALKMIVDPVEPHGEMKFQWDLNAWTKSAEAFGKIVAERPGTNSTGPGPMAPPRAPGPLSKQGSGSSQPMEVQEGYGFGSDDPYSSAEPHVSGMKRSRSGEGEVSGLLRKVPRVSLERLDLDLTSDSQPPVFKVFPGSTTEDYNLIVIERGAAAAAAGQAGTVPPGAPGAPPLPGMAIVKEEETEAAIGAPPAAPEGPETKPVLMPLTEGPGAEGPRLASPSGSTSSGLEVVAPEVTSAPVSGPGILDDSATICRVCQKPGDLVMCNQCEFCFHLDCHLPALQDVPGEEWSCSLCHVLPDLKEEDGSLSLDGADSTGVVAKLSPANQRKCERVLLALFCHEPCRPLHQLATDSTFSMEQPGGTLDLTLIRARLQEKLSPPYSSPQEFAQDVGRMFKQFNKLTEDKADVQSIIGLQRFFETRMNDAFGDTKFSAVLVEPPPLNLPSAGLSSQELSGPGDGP
UniProt Q8C0D7: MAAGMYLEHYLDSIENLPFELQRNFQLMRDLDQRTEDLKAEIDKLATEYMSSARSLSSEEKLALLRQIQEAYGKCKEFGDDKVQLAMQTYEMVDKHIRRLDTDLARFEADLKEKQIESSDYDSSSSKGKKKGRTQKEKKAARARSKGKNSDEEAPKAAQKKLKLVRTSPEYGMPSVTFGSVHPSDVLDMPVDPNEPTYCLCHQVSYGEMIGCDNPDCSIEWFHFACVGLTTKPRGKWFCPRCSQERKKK
UniProt Q5SVQ0: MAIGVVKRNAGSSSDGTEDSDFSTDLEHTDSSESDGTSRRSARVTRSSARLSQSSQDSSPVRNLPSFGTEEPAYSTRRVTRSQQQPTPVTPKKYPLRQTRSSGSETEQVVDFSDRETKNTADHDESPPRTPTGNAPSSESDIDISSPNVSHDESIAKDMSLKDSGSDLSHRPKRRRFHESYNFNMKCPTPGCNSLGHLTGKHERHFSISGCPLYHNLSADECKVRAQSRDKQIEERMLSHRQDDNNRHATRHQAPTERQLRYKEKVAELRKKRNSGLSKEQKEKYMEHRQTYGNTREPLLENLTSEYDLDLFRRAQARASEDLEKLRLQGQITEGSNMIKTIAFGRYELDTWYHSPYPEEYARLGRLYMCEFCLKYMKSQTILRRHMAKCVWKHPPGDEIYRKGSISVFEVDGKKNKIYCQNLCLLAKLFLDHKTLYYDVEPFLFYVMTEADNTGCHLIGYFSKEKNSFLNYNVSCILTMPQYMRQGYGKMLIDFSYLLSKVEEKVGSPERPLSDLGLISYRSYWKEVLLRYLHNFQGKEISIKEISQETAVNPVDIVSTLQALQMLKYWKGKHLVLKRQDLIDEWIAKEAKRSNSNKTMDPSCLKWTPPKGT

Key:
[1] = biological target: Trim28 (mouse (endogenous in E14 ESCs)) (UniProt Q62318); test: co-IP; antibodies (2-5 ug) coupled to Dynal-Protein G beads, incubated with whole cell extracts of mouse ESCs for 1-2 h at 4 °C; endogenous proteins; western blot; control rabbit IgG
[2] = biological target: T1, GST-tagged mouse Niam CT (residues 158-406) (mouse) (UniProt Q3UB74); test: pull-down; purified GST or GST-Niam proteins bound to glutathione sepharose, 0.5 to 1 mg of mouse ESC lysate in NP-40 buffer (50 mM Tris pH 8.0, 120 mM NaCl, 1 mM EDTA, 0.5% NP-40), overnight at 4 °C; immunoblot with anti-Myst2; only the target purified
T1 sequence: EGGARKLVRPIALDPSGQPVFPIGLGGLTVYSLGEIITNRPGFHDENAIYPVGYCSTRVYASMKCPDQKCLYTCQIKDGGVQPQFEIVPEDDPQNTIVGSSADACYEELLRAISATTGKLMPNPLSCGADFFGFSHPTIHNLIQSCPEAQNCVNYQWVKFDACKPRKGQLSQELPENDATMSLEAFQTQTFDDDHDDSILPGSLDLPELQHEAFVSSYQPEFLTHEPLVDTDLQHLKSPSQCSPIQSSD

[3] = biological target: T2, GST-tagged wild-type mouse Niam (mouse) (UniProt Q3UB74); test: as above
T2 sequence: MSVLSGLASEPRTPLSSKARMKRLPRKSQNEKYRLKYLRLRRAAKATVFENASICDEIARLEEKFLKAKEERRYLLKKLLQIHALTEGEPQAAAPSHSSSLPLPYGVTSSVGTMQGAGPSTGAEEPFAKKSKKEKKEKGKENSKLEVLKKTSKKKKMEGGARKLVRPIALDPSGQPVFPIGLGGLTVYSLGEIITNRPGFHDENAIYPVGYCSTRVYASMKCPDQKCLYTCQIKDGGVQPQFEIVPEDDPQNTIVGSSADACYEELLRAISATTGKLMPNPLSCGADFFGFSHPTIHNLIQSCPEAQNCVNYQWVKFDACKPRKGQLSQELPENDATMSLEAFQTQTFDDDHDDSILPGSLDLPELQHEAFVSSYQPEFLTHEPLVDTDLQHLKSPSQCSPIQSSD

[4] = biological target: T3, GST-tagged human Niam (human) (UniProt Q3YBR2); test: as above
T3 sequence: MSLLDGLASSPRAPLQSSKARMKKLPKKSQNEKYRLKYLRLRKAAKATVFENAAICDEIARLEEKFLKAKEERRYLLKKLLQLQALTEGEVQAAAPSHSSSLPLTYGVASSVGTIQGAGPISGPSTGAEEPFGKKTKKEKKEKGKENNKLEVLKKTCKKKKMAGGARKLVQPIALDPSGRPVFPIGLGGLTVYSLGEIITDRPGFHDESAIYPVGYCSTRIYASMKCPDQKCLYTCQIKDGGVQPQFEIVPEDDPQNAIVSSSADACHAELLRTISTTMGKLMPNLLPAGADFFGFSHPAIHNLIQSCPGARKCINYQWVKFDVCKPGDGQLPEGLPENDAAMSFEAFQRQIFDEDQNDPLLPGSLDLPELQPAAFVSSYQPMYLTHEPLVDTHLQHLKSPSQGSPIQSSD

[5] = biological target: T4, GST-tagged mouse Niam NT (residues 1-164) (mouse) (UniProt Q3UB74); test: as above
T4 sequence: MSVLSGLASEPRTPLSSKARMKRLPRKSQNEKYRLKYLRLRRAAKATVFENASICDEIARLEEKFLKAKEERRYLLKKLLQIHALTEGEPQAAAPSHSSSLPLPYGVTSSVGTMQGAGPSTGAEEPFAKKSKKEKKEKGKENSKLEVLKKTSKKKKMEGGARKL

In the case of Ing4 (from UniProt Q8C0D7 1-249), the binding [1] is reported as “binds”.

With “Myst2 (endogenous, untagged) (from UniProt Q5SVQ0 1-613) (enzyme)” the binding [2] was “no binding”, the binding [3] was “binds” and the binding [4] was “no binding”. The binding [5] was “binds”.

B1: Phf16 (protein, UniProt Q6IE82 1-823)
chain: MKRHRPVSSSESSDECPSTSFTSSSMYRKKSKNPKEQKKSAEVFRKDLISAMKIPDSHHVNPDSYYLFTDTWKEEWEKGVQVPANPDSVPTPSLRIISEKVKEMLFVRPRKYIRCSSPESAEPGYINTLEQAASTCRYDLDDMDIFWLQELNEDLGEMGYGPIDETLMEKTIEVLERHCHENMNHAIETVEGLGIEYDEDVICDVCRSPDSEEGNDMVFCDKCNVCVHQACYGILKIPEGSWLCRSCVLGIYPQCVLCPKKGGAMKTTRTGTKWAHVSCALWIPEVSIACPERMEPVTKISHIPPSRWALVCNLCKLKTGACIQCSVKSCITAFHVTCAFEHGLEMKTILDEGDEVKFKSFCLKHSQNKPKLGDAEYHHHRVAEQSQAKSEKTSLRAQKLRELEEEFYTLVQVEDVAKEMELSAFTVDFIYNYWKLKRKSNFNKPLIPPKEEEENGLVQPKEESIHTRMRMFMHLRQDLERVRNLCYMISRREKLKLSHTKVQEQIFGLQVQLINEEITEGLSLTNALENSLFYPPPRITLKLKMPKSTSEDCKDSSTETEHQLSSPGSSSPGHSKRSPQMPEEPLDMNVKIYPRYPLESKSNCLQTSRSHSRCETKSSSPTPRAPSAEFYHGQSLGKPLALQAALHGQVSIGNGKNQPNSRVSSSNGLEGNWSGNITQKVNSSEVCYDQESMLSSHLPSPGNIRKSSMEHFSRSFKEATNTWVKPTEDLQYCVKPTKNVSSKEQLWGRQLLRRPTGRASYQETDGYCPDLEPSDSEAEGEGSKETPRVKRESSDRENPSHDSARECHGKTKTHPHSHSSMQR
With B1 the binding [1] was “binds”.
